According to the supplement of paper PMC3334620:
The full ranking holds about 33,000 sequences; the median of “E-score (-0.5 to 0.5)” is about -0.0034, and the highest 2% start at about 0.25. This is one part of the list.

Each sequence was assayed against T1, Yap3 (UniProt P38749) (assay: PBM E-score (8-mer binding enrichment) (E-score (-0.5 to 0.5)); higher = stronger / more preferred TF binding). Settings: protein concentration: 100 nM; construct: GST-full length.
T1 sequence: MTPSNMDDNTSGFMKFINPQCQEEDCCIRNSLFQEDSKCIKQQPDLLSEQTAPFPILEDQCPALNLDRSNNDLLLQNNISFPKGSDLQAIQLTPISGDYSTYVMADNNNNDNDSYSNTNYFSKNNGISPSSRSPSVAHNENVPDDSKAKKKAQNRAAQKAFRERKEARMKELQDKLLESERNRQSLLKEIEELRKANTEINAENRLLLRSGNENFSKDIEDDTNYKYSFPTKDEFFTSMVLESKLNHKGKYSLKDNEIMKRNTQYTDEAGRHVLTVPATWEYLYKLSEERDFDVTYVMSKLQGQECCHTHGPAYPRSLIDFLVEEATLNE
In short: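 The E-score, a modified Wilcoxon-Mann-Whitney statistic, was computed by the Universal PBM Analysis Suite for every ungapped eight-base word pooled with its reverse complement. Scans behind it were normalised with masliner after bound GST-tagged yeast transcription factors were detected with fluorescent anti-GST. The proteins, at about 100-200 nM, had been applied to universal all-10-mer Agilent arrays made double-stranded by primer extension.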

Sequence | PBM E-score
CCCCGTCG | -0.309
AGACACAT | -0.079
AAAAGAAC | 0.136
CTCGATAA | 0.0958
ATAAAGGA | -0.117
GCACAGAC | 0.00931
CGAAGGTA | 0.00763
GTAGCTGA | -0.0966
ACATTTGG | -0.00729
CTGGTTGA | -0.256
GGAAGCTA | -0.0915
AGTCCGGA | -0.0488
AGTAGCGA | 0.0288
CCAATAAA | 0.218
GACCTGTA | -0.0803
AAAATAAT | 0.224
CGGTATGC | -0.17
CAGTATGA | 0.143
ACGGCATG | 0.0157
AGACACAG | -0.148
CACCACGA | 0.0157
GTTAACCA | 0.145

Sequence | PBM E-score
CACAGTAA | 0.265
GCCCGCCC | -0.3
CTTTAAGA | 0.0783
GAGCGACA | 0.0223
GCTGAGCA | -0.07
GAAAGTGC | -0.131
ATGTGACG | -0.0689
ACCGTTCA | -0.0456
ATGGGTGG | -0.0448
ACGCAGAC | -0.0392
ACTCACAT | 0.0827
ATTATTCC | 0.248
GTGCAAGA | 0.152
ACAAGTAA | 0.0548
CGCCAGAC | -0.126
CAGACTCC | -0.222
CTTTATAC | 0.114
GAATACCC | 0.00523
ATGACCTA | -0.00491
CGCGCCCC | -0.181
CCGTCATC | -0.204
ATGATTCA | 0.0934

Sequence | PBM E-score
GAGCTGCA | -0.145
AAGTTCGT | -0.00106
AGATTAGA | -0.0346
AGGCTGGA | -0.252
CATCCGCC | -0.0593
ACACGATC | -0.0222
ACTAATCT | 0.00634
AACAGGAG | -0.0488
CGCGTGAC | 0.012
GTGGTACA | -0.117
TACGAGAA | 0.115
CCGCATCG | -0.325
TCGCGAAA | 0.114
GCTTTTAA | -0.0608
TGAAATAA | 0.21
CTAAAATC | -0.00289
GCCGACTA | 0.0231
CTGGTCTA | -0.0194
AGTAGAAT | 0.207
ACCGCTTG | 0.0284
CAACGGGA | 0.0834
ACGTTCTA | -0.0668

Sequence | PBM E-score
AAGGCAAA | 0.159
AGATTTCC | 0.182
CGACATCC | -0.178
CCATGACG | 0.0295
GCCGGAGA | -0.0884
CTGCGCTA | -0.108
GCCTCCAA | -0.0329
AGACGAGC | -0.172
CATCTGAG | -0.0685
AGGGGTGC | -0.199
AGGCACAC | -0.162
ACGCAGCA | -0.0281
GATAAGCA | 0.138
CCTCGAGG | 0.102
CTTCCGGC | -0.0541
AGAAGATA | 0.234
CGTTTATA | 0.28
CCATTAAA | 0.0581
CTCCGCAA | -0.247
CACTGGCC | -0.159
AGCTTCGG | -0.0969
ATGATTGC | 0.199

Some values from above:
PBM E-score, AGAAGATA reads 0.234
PBM E-score, CCATGACG reads 0.0295
PBM E-score, AGACGAGC reads -0.172
PBM E-score, CATCTGAG reads -0.0685
PBM E-score, CACTGGCC reads -0.159
PBM E-score, GATAAGCA reads 0.138
PBM E-score, AGATTTCC reads 0.182

More entries

Sequence | PBM E-score
TGATGGCA | 0.0241
CACTATCG | 0.052
CGATACTA | 0.212
CCAGGTTA | 0.00966
GTTCAAAA | -0.0132
GAATCGGC | 0.0864
CACCCATA | -0.132
GATGGACA | -0.0115
CAAAGACC | -0.0486
ACTCTCGG | -0.0113
TCCGAAAA | -0.172
CTATGATC | -0.0167
ACCCTGAG | -0.00061
GACGCACA | 0.00333
ATAACTAG | 0.146
ACCGGCTC | -0.147
ACACCTCA | -0.011
ACGTGACC | -0.173
GTGAGAGA | -0.048
GATGTGAA | 0.161
AACGCGTT | -0.025
